Assay results published in PubChem BioAssay AID1259415 (National Center for Advancing Translational Sciences (NCATS), 2018).
“And” between values parts separate entries of the source, which are not always exact repeats. Identical values can stand only once. In all, about 410,000 compounds went through this assay and about 18,000 (4.4%) were called active. Inconclusive means that the source gave no clear call. Such entries were picked first, then a sample of the others. Rule as the data show it: active = activity change below about -60%; inconclusive = no clear call, values can overlap the other calls; inactive = above about -39%.

Assay: qHTS Assay for inhibitors of the human cytomegalovirus (HCMV)
Conditions: HFF cells, HCMV-luciferase reporter, 72 h; at 57.5 µM; stronger effect = lower value
Outline: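 Inhibition of viral replication was scored as loss of reporter luminescence in HFFs infected with HCMV-luciferase (MOI 1 PFU/cell) for 72 h; compounds tested at 2 doses, normalized to buffer and Salinomycin controls.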
% is scaled to controls: 0 for no effect and ±100 for the full control effect.

SMILES | activity change, negative = inhibition
O=C(O)c1cccc(NC(=O)c2ccc3c(c2)C(=O)N(c2ccccc2)C3=O)c1 | inactive: 25.5%
Cc1cccc(N2CCN(C(=O)CCNS(=O)(=O)c3ccc4c(c3)CCC(=O)N4)CC2)c1C | inconclusive: -53.6%
COc1ccccc1N1CCN(CC(=O)Nc2nc(C)c(C(=O)N(C)C)s2)CC1 | inactive: -5.57%
CCn1cc(C(=O)NCCCN2CCCC(C)C2)c(=O)c2cc(S(=O)(=O)N(C)C3CCCCC3)ccc21 (stereo unspecified) | inconclusive: -50%
Cc1ccc(NC(=O)C2(c3ccccc3)CC2(Cl)Cl)cc1C (stereo unspecified) | inactive: 109%
Cn1ccc2cc(-c3ccc4ncnc(NCc5cccs5)c4c3)ccc21 | active: -71.9%
CC1CC(CCN)(c2ccccc2)C(C)CN1C (stereo unspecified) | inconclusive: -55.2%
CC(C)(NS(=O)(=O)OCC(Cl)(Cl)Cl)c1ccccc1 | inconclusive: -52.6%
COc1ccccc1CNC(=O)Cn1c(=O)oc2cc(Cl)ccc21 | inconclusive: -45.2%
O=C(O)C1C2CCC(C2)C1C(=O)NCCc1cccc(Cl)c1 (stereo unspecified) | inactive: 7.6%
CCOc1ccccc1CNC(=O)C1CCC(=O)N1C(C)C (stereo unspecified) | inconclusive: -52.7%
Cc1ccc(Sc2ncccc2C(=O)O)c(C)c1 | inactive: -16.2%
COc1ccc(Cn2c(SCc3ccc(C(=O)NC(C)C)cc3)nc3cccnc32)cc1 | inactive: -22.4%
CCCCNCCOCCOc1ccc(C)cc1Br | inconclusive: -47%
Cc1onc(-c2ccccc2)c1C(=O)OCCOc1ccc([N+](=O)[O-])cc1[N+](=O)[O-] | inconclusive: -47.8%
CSCCC(NC(=O)C1CCCC1)c1nnc2ccccn12 (stereo unspecified) | inconclusive: 0%
O=C(c1ccc2c(c1)N(Cc1ccc(F)cc1)C(=O)c1ccccc1S2=O)N1CCC(Cc2ccccc2)CC1 (stereo unspecified) | active: -78.4%
CCOC(=O)c1c(C)[nH]c(C(=O)OCC(=O)Nc2ccc(Cl)cn2)c1C | inactive: -10.3%
Cc1noc(C)c1N=Nc1ccccc1C(=O)O | inactive: 9.21%
COc1ccc(-n2cc(-c3ccccc3)c3c(NN4CCOCC4)ncnc32)cc1 | inconclusive: -41%
Cc1ccc(S(=O)(=O)Nc2ccc(C(=O)N3CCN(c4ccccc4O)CC3)cc2)cc1[N+](=O)[O-] | inactive: -22.8%
CC(C)c1ncc(S(=O)(=O)c2ccc(C(F)(F)F)cn2)c(N)n1 | inactive: 21%

SMILES | activity change, negative = inhibition
Cc1ccc(S(=O)(=O)NCCC(=O)N2CCN(c3ccccc3)CC2)cc1C | inconclusive: -41.9%
Cc1ccc(CCNC(=O)Cn2nc(-c3ccc(C)cc3)ccc2=O)cc1 | inconclusive: -53.4%
CCOC(=O)c1sc2ccc(S(=O)(=O)N3CCCCC3)cc2c1N | inconclusive: -47.9%
Cc1ccc(S(=O)(=O)NC(C)CCc2ccccc2)cc1C(N)=O (stereo unspecified) | inconclusive: -55%
COc1ccc(-c2[nH]ncc2C(=O)NCc2ccccc2C)cc1 | inconclusive: -46.3%
COc1cccc(/C=N/NC(=O)c2cc(-c3cccn3C)n[nH]2)c1O | inconclusive: -49.1%
Cc1ccc(CN2CCC(C(=O)Nc3cccc(-c4cccc(F)c4)c3)CC2)o1 | inactive: 11.4%
O=C(Cn1ccc(C(F)(F)F)n1)NNC(=O)c1cccnc1 | inconclusive: -56.3%
CN(C(=O)c1cccc(NC(=O)Cc2ccc([N+](=O)[O-])cc2)c1)C1CC1 | inactive: -16%
COc1ccc2c(c1)[C@@]13CCCCC1[C@@H](C2)NCC3 (stereo partly specified) | inconclusive: -41%
COc1cc(/C=N\NC(=O)c2ccccc2F)ccc1Oc1ccc([N+](=O)[O-])cn1 | inconclusive: -45.8%
O=C(Cn1c(=O)c2cccn2c2ccccc21)Nc1cc(F)ccc1F | inactive: -22.1% and inactive: 4.35%
CC1(C)CC(=O)C2=C(C1)N(c1ccccc1C#N)C(N)=C(C#N)C2c1cccs1 (stereo unspecified) | inconclusive: -44.6%
O=C(CSc1nncs1)Nc1nccs1 | inactive: -8.02%
COc1ccccc1NC=C1C(=O)OC2(CCCCC2)OC1=O | inconclusive: -41.8%
COc1ccc(-n2c(N)c(C(=O)NCc3ccco3)c3nc4ccccc4nc32)cc1OC | active: -81%
CC(C)(C)n1ncc2c(=O)n(Cc3ccc(Cl)cc3)cnc21 | inconclusive: -58.8%
O=C(CSc1nnc(-c2cccs2)n1Cc1ccccc1)N1CCc2ccccc2C1 | inactive: -10.6%
COC(=O)c1ccc(Oc2c(Cl)cccc2[N+](=O)[O-])cc1 | inconclusive: -42.9%
COc1ccc(N(C)C(=O)C2CCN(S(=O)(=O)c3cccc4nonc34)CC2)c(OC)c1 | active: -60.7%
Cc1cn([C@H]2C[C@H](O)[C@@H](CNC(=O)[C@H]3CCC(=O)N3)O2)c(=O)[nH]c1=O | inactive: -6.57%
CCN(c1cccc(C)c1)S(=O)(=O)c1ccc2[nH]cc(C(=O)NCCCOC)c(=O)c2c1 | inactive: -23.5%

SMILES | activity change, negative = inhibition
Cc1c(-n2c(SCC(N)=O)nc3ccccc3c2=O)c(=O)n(-c2ccccc2)n1C | inconclusive: -40.2%
O=C(N/N=C/c1ccc(Cl)c([N+](=O)[O-])c1)c1cc(-c2ccccc2)nc2ccccc12 | inconclusive: -55%
COc1cccc(/C=C/C(=O)OCC(=O)Nc2ccc(Cl)c(S(=O)(=O)N(C)C)c2)c1 | inconclusive: -46.3%
COc1ccc(CN2CCN(S(=O)(=O)c3ccccc3)CC2)cc1Br | inconclusive: -53.4%
Clc1cccc(-n2ncc3c(N4CCCCC4)ncnc32)c1 | inconclusive: -56.2%
CCOC(=O)c1cc2c(C)n(-c3ccc(OCC)cc3)c(C)c2cc(C(=O)OCC)c1=O | inconclusive: -51.7%
CS(=O)(=O)N(CC(=O)NCC1CCCO1)c1ccc(F)c(Cl)c1 (stereo unspecified) | active: -60.4%
Cc1cccc(CN2C(=O)c3ccccc3S(=O)(=O)c3ccc(C(=O)NCCCN4CCCC4)cc32)c1 | inactive: 0%
N#C/C(=C\C=C\c1ccccc1)c1nc(-c2ccc(Cl)cc2)cs1 | active: -60.2%
CS(=O)(=O)Nc1cccc(C2=NN(S(=O)(=O)c3ccc(F)cc3)C(c3cccs3)C2)c1 (stereo unspecified) | inconclusive: -53.5%
C#C[C@]1(O)CCC2C3C(=O)C=C4C(Cl)=CCC[C@]4(C)C3CC[C@@]21C (stereo partly specified) | active: -79.7%
CCNC(=S)N1CCc2cc(OC)c(OC)cc2C1COc1ccc(F)cc1 (stereo unspecified) | inactive: -16.1%
CCN(CC(=O)Nc1sc2c(c1C#N)CCC(C)C2)CC(=O)NC1CCS(=O)(=O)C1 (stereo unspecified) | inactive: 28.8%
COc1ccc(-c2ccc(C(=O)NCc3ccc(F)c(F)c3)c3occc23)c(C)c1 | inconclusive: -43.8%
O=C(NCCCn1ccnc1)Nc1ccc(Cl)c(Cl)c1 | active: -106%
CCCCCN1C(=O)c2ccccc2[C@@]2(C(=O)OCC)Cc3cc(Cl)ccc3[C@@H]12 | inconclusive: -51.5%
O=C(COC(=O)c1cccc(S(=O)(=O)N2CCOCC2)c1)NCc1ccccc1 | inconclusive: -54.6%
CN(c1ccccc1)S(=O)(=O)c1cc(C(=O)OCC(N)=O)ccc1Cl | inconclusive: -41.9%
CC1(C)Cc2c(sc(NC(=O)/C=C/C(=O)O)c2C#N)CO1 | inactive: -15.2%
Cc1cccc(C)c1NC(=S)N1CCC(c2ccccc2)C1 (stereo unspecified) | inconclusive: -42.6%
O=C(Nc1c(Cl)ccc2nsnc12)c1ccc([N+](=O)[O-])o1 | active: -106%
O=S1(=O)C[C@H](N2CCN(CC3CC3)CC2)[C@@H](COCc2ccccc2)N1 | inconclusive: -50.8%

SMILES | activity change, negative = inhibition
COc1cc(NS(=O)(=O)c2ccc3c(c2)CCN3S(C)(=O)=O)cc(OC)c1 | inconclusive: -41.8%
COc1ccc(-n2c(C)cc3cc(OC(C)=O)ccc32)cc1 | inactive: -3.86%
O=C(CCn1nc(-c2ccc(Cl)cc2)c2ccccc2c1=O)Nc1cccnc1 | active: -65.5%
CCCCc1c(-c2ccccc2F)ncn1CCc1ccccc1OC | inconclusive: -50.4%
CC1(C)Oc2ccc3ccc(=O)oc3c2/C(=C/Nc2ccccc2)C1=O | inconclusive: -60%
CC1Cc2cc(S(=O)(=O)N3CCN(c4ccccc4F)CC3)ccc2N1C(=O)C1CCC1 (stereo unspecified) | inactive: -11.3%
O=C(COc1cccc(Cl)c1)Nc1ccc2c(c1)CCC2 | active: -65.8%
CC(C)CCNC(=O)c1nnc(Cc2ccc(Cl)cc2)o1 | inactive: 6.19%
CC(C)n1c(=O)nc(-c2ccccc2)c2cc3c(cc21)OCO3 | inconclusive: -55.8%
Cc1[nH]c(=O)[nH]c(=O)c1S(=O)(=O)N1CCC(C(=O)N2CCN(c3cccc(C(F)(F)F)c3)CC2)CC1 | inconclusive: -56.3%
Cc1ccc(S(=O)(=O)Nc2ccc3nc(N)sc3c2)cc1 | active: -88.8%
O=C(NNC(=O)c1ccccc1OCc1ccccc1)c1ccccc1F | inactive: 132%
CC(=O)Nc1cccc(NS(=O)(=O)Cc2ccc(Cl)cc2)c1 | active: -66%
CC(/C=C1\SC(=S)N(CC(=O)N2CCN(c3ccccc3)CC2)C1=O)=C\c1ccccc1 | inconclusive: -45%
COc1cccc(/C=C(/C(=O)OCC(=O)NC2CCCC(C)C2C)c2ccccc2)c1 (stereo unspecified) | inconclusive: -43.6%
O=C(COc1ccccc1Cl)NCC1(N2CCOCC2)CCCCC1 | active: -99.9%
Cc1cc(C)nc(N2C(=O)CC(Cc3ccc(Cl)cc3)C2=O)n1 (stereo unspecified) | active: -101%
O=C(CSc1nnc(-c2ccccc2)o1)N1CCN(c2ccccc2)CC1 | inactive: -13.2%
COc1ccccc1Cc1c(-c2ccc(C#N)cc2)nc2c(C)cc(Br)cn12 | inactive: 16.3%
Cc1cccc(NC(=O)c2cc(NC(=O)c3ccccc3)ccc2N2CCCCC2)c1 | inconclusive: -58.9%
